Source: PubChem BioAssay AID280 (DTP/NCI, 2004)
The list shows only some results of the screen, not a fair sample: it gathers tests that were run many times, whatever their T/C, doses with no T/C, and many T/C values between a quarter and a half above the control. Other doses and runs of a compound stand elsewhere. T/C: endpoint of the treated group in % of that of the vehicle group. Some entries give survivors of the animals treated and no T/C: the source files T/C as zero there, which appears to mark a toxic dose or a test without result, not a measured value. Some survivor counts are full or nearly so, which does not show that the dose was tolerated: the source hardly ever lists a survival T/C far under the control, and the zero likely stands for such cases as well. Survivors were counted at the toxicity check, usually on the fifth day, unless a day is given; later deaths do not show. Schedules are NCI's codes, taken here to give the interval after Q, in days (D) or hours (H), and the number of doses after X. Some entries hold several experiments; their values stand side by side, smallest first. Where survival is the endpoint, this PubChem deposit counts one and a half times the control or more as active, and values a quarter to a half above the control carry no call in these data; other NCI protocols may use other cut-offs. Brackets with × say how often a value occurs here. Some T/C values carry the count of animals alive at the toxicity check (mostly the fifth day); without a count, all were alive then.

Test system: nude mice, LOX melanoma ip, survival T/C
Assay: NCI In Vivo Anticancer Drug Screen. Data for tumor model Human Amelanotic Melanoma (LOX) (intraperitoneal) in NU/NU BALB/C (nude) mice
Conditions: T/C endpoint: median survival time, schedule: Q04DX003 (ip), higher T/C = longer survival
Description: The antitumor activity of compounds was measured in mice bearing transplantable tumors. Survival or tumor size were measured and the results are expressed as the measurement made in the treated group (T) divided by the measurement made in the vehicle treated control group (C). The tumor model used in this assay is Human Amelanotic Melanoma (LOX) (intraperitoneal) in NU/NU BALB/C (nude) mice

[1] = dose: 400.0 mg/kg/injection, vehicle: Klucel (hydroxypropylcellulose) (HPC)
[2] = dose: 100.0 mg/kg/injection, vehicle: saline with Tween-80
[3] = dose: 200.0 mg/kg/injection, vehicle: saline with Tween-80
[4] = dose: 50.0 mg/kg/injection, vehicle: saline with Tween-80
[5] = dose: 100.0 mg/kg/injection, vehicle: Klucel (hydroxypropylcellulose) (HPC)
[6] = dose: 200.0 mg/kg/injection, vehicle: Klucel (hydroxypropylcellulose) (HPC)

## O=C1C(=O)c2cccnc2-c2ncccc21
dose: 10.0 mg/kg/injection, vehicle: Klucel (hydroxypropylcellulose) (HPC)
  T/C: 133 % of control
dose: 20.0 mg/kg/injection, vehicle: Klucel (hydroxypropylcellulose) (HPC)
  survivor count: 0 of 6 on day 10
dose: 40.0 mg/kg/injection, vehicle: Klucel (hydroxypropylcellulose) (HPC)
  survivor count: 0 of 6 on day 10

## O=C(NC(Cc1ccc(I)cc1)C(=O)O)c1ccc(Br)cc1 (stereo not drawn)
dose: 300.0 mg/kg/injection, vehicle: other
  survivor count: 1 of 6 on day 10

## CN(C)[C@@H]1C(=O)C(C(=O)NCN2CCN(C(=N)N=C(N)N)CC2)=C(O)[C@@]2(O)C(=O)C3=C(O)c4c(O)cccc4[C@@](C)(O)[C@H]3C[C@@H]12
dose: 0.63 mg/kg/injection, vehicle: suspension in saline
  T/C: 135 % of control

## COc1ccc(N=N/N=c2\sc3cc(OC)ccc3n2C)cc1
dose: 60.0 mg/kg/injection, vehicle: saline with Tween-80
  T/C: 128 % of control
dose: 240.0 mg/kg/injection, vehicle: saline with Tween-80
  survivor count: 2 of 6 on day 10

## COC12[C@@H]3N[C@@H]3CN1C1=C(C(=O)C(NCCSSCCNC3=C(C)C(=O)C4=C(C3=O)C(COC(N)=O)[C@]3(OC)C5N[C@@H]5CN43)=C(C)C1=O)[C@@H]2COC(N)=O (stereo partly drawn)
dose: 0.78 mg/kg/injection, vehicle: DMSO
  T/C: 127 % of control
dose: 3.13 mg/kg/injection, vehicle: DMSO
  T/C: 132 % of control
dose: 6.25 mg/kg/injection, vehicle: DMSO
  T/C: 132 % of control

## COC(=O)c1ccc(N=NN(C)COC(C)=O)cc1
dose: 60.0 mg/kg/injection, vehicle: Klucel (hydroxypropylcellulose) (HPC)
  T/C: 129 % of control
[1]
  survivor count: 3 of 6 on day 10
dose: 480.0 mg/kg/injection, vehicle: Klucel (hydroxypropylcellulose) (HPC)
  survivor count: 4 of 6 on day 10

## CC1(O)C=CC(=O)C=C1
dose: 100.0 mg/kg/injection, vehicle: water
  survivor count: 1 of 6 on day 10

## [Cl][Pt][Cl].[NH-]C(CO)C(=O)O (stereo not drawn)
dose: 75.0 mg/kg/injection, vehicle: water
  T/C: 139 % of control
dose: 150.0 mg/kg/injection, vehicle: water
  survivor count: 1 of 6 on day 10

## COC1=C(C)C(=O)C2=C(C1=O)C(CO)N1C(C#N)C3CC4C(C1C2N1CCOC41)N3C (stereo not drawn)
dose: 1.25 mg/kg/injection, vehicle: saline + alcohol
  T/C: 133 % of control
dose: 5.0 mg/kg/injection, vehicle: acid diluted with saline
  survivor count: 2 of 6 on day 10
dose: 5.0 mg/kg/injection, vehicle: saline + alcohol
  survivor count: 0 of 6 on day 10
dose: 10.0 mg/kg/injection, vehicle: acid diluted with saline
  survivor count: 0 of 6 on day 10
dose: 10.0 mg/kg/injection, vehicle: saline + alcohol
  survivor count: 0 of 6 on day 10

## Nc1nc2c(C(=O)N3CCCC3)nnn2c2ccccc12
[2]
  survivor count: 4 of 6 on day 10
[3]
  survivor count: 0 of 6 on day 10

## Oc1cccc2ccccc12
dose: 300.0 mg/kg/injection, vehicle: water
  survivor count: 2 of 6 on day 10

## S=C1CCCCN1
dose: 300.0 mg/kg/injection, vehicle: distilled water + Tween-80 + alcohol
  survivor count: 0 of 6 on day 10
dose: 600.0 mg/kg/injection, vehicle: distilled water + Tween-80 + alcohol
  survivor count: 0 of 6 on day 10

## ClC1(Cl)Cc2ccccc21
[3]
  T/C: 132 % of control
dose: 800.0 mg/kg/injection, vehicle: saline with Tween-80
  survivor count: 0 of 6 on day 10

## COc1ccc(C(C)c2cc3c(cc2OC)OCO3)cc1 (stereo not drawn)
dose: 12.5 mg/kg/injection, vehicle: saline with Tween-80
  T/C: 145 % of control
[4]
  T/C: 132 % of control

## Cc1ccc(C2=CSC3=NCCN23)cc1Cl
[5]
  survivor count: 0 of 6 on day 10
[6]
  survivor count: 0 of 6 on day 10

## O=c1[nH]cnc2c1cnn2CN1CCOCC1
[6]
  survivor count: 2 of 6 on day 10
[1]
  survivor count: 0 of 6 on day 10

## COc1cc2c(c3c1c(=O)c1ccccc1n3C)C=CC(C)(C)O2
[5]
  survivor count: 6 of 6 on day 10
[6]
  survivor count: 0 of 6 on day 10 and 4 of 6 on day 10
[1]
  survivor count: 0 of 6 on day 10

## O=C(O)Cc1cccc2c(=O)cc(-c3ccccc3)oc12
dose: 100.0 mg/kg/injection, vehicle: sodium bicarbonate
  T/C: 128 % of control
dose: 200.0 mg/kg/injection, vehicle: sodium bicarbonate
  T/C: 139 % of control
dose: 400.0 mg/kg/injection, vehicle: sodium bicarbonate
  T/C: 128 % of control [4 of 6 alive on day 10]

## S=c1sc2ccccc2n1CN1CCOCC1
dose: 150.0 mg/kg/injection, vehicle: saline with Tween-80
  survivor count: 5 of 6 on day 10
dose: 600.0 mg/kg/injection, vehicle: saline with Tween-80
  survivor count: 4 of 6 on day 10
dose: 1200.0 mg/kg/injection, vehicle: saline with Tween-80
  survivor count: 1 of 6 on day 10

## [NH-]C(CCC(N)=O)C(=O)O.[NH-]C(CCC(N)=O)C(=O)O.[Zn+2] (stereo not drawn)
[2]
  survivor count: 2 of 6 on day 10
[3]
  survivor count: 0 of 6 on day 10

## Nc1nc2n[nH]nc2c(=O)[nH]1
dose: 600.0 mg/kg/injection, vehicle: suspension in saline
  survivor count: 0 of 6 on day 10

## COc1ccc2oc(-c3ccc(Cl)cc3)c(N3CCN(C)CC3)c2c1
dose: 37.5 mg/kg/injection, vehicle: saline
  T/C: 139 % of control
dose: 600.0 mg/kg/injection, vehicle: saline
  survivor count: 2 of 6 on day 10

## CCOC(=O)N(C)N=NC
dose: 7.5 mg/kg/injection, vehicle: saline
  T/C: 131 % of control
dose: 30.0 mg/kg/injection, vehicle: saline
  T/C: 132 % of control (2×)
dose: 60.0 mg/kg/injection, vehicle: saline
  T/C: 143 and 147 % of control

## CO[C@@]12[C@@H]3N[C@@H]3CN1C1=C(C(=O)C(NCCc3ccccn3)=C(C)C1=O)[C@@H]2COC(N)=O
dose: 0.78 mg/kg/injection, vehicle: saline with Tween-80
  T/C: 146 % of control
[4]
  survivor count: 6 of 6 on day 10
